# Assay results reported in US10004732B2 (Novartis AG, priority 2014, dated 2018).
# Amino acid sequences for entries named in this document (tags omitted). A change or cut given only in a name is not applied to a line headed by its entry.
# UniProt P48736: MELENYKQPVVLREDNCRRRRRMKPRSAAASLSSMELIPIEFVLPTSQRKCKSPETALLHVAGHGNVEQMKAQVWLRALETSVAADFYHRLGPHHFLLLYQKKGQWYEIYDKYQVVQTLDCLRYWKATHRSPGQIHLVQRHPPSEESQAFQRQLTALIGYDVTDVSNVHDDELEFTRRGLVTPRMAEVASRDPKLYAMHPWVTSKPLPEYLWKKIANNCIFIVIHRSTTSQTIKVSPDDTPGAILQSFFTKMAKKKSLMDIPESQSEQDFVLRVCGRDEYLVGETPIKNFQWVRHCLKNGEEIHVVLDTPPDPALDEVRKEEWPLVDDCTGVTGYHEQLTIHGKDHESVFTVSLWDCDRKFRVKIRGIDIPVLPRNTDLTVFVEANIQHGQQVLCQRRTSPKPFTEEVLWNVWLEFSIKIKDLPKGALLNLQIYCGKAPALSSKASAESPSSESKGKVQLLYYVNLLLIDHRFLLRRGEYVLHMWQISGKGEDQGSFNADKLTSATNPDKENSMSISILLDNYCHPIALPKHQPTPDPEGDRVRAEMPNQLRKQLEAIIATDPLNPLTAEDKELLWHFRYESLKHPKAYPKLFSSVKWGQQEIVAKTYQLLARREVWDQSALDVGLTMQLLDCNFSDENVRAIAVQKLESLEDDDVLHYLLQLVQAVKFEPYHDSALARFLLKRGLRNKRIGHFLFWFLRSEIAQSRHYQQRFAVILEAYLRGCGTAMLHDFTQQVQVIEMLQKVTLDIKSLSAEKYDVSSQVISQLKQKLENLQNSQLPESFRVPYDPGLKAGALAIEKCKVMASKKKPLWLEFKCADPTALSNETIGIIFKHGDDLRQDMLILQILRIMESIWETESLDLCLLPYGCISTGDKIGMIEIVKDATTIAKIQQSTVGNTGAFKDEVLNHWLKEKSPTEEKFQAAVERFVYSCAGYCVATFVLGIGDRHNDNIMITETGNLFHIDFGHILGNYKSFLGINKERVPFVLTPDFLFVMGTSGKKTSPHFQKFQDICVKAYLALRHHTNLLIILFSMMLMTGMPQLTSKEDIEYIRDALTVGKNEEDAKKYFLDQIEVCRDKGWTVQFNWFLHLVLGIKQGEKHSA
# Columns and labels:
# PI 3-kinase gamma [1] = molecular target: T1, PI 3-kinase gamma (Homo sapiens, UniProt P48736); assay: TR-FRET Adapta assay, assay E; format: biochemical; conditions: read-out: Assay E PI3Kγ IC50
# PI 3-kinase gamma [2] = molecular target: T1, PI 3-kinase gamma; assay: Cellular U937 AKT assay K1 (MSD); format: cell-based; conditions: U937 cells, K1 format; read-out: Assay K1 PI3Kγ IC50
# PI 3-kinase gamma [3] = molecular target: T1, PI 3-kinase gamma; assay: Cellular U937 AKT assay K2 (HTRF); format: cell-based; conditions: U937 cells, K2 format; read-out: Assay K2 PI3Kγ IC50
IC50 (PI 3-kinase gamma [1]) [nM],IC50 (PI 3-kinase gamma [2]) [nM],IC50 (PI 3-kinase gamma [3]) [nM],SMILES
31,145,207,"Cc1ccc(S(=O)(=O)NCC(C)(C)O)cc1-c1cnc(N)c(-c2cnn(C)n2)n1 [Example 18, 3-[5-Amino-6-(2-methyl-2H-[1,2,3]triazol-4-yl)-pyrazin-2-yl]-N-(2-hydroxy-2-methyl-propyl)-4-methyl-benzenesulfonamide]"
39,366,215,"Cc1ccc(S(=O)(=O)NCC(C)(C)O)cc1-c1cnc(N)c(-n2cncn2)n1 [Example 6, 3-(5-Amino-6-(1H-1,2,4-triazol-1-yl)pyrazin-2-yl)-N-(2-hydroxy-2-methylpropyl)-4-methylbenzenesulfonamide]"
